# PubChem BioAssay AID1159538, Gurdon Institute | 2015
# Purpose: 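Which E2 enzyme knock-downs change checkpoint kinase signalling after DNA breaks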
# System: human U2OS osteosarcoma cells
# Reagent: siRNA against human genes, about 60 nM siRNA
# Treatment: ionising radiation, 10 Gy, cells collected 2 h later
# Measurement: 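Immunoblot ratio of phospho-CHK1 to total CHK1 after 10 Gy irradiation, given as percent of a luciferase control siRNA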
# Reading the numbers: pCHK1/CHK1, % of control: higher = more CHK1 phosphorylation after irradiation
# Call rule: 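a ratio under 60 or over 140 percent of control is called active, in either direction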
# Calls: active = pCHK1/CHK1 changed (up or down); inactive = pCHK1/CHK1 near control
# In the full data, 20 (48%) are marked active. 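Active includes both rises and falls; each knock-down rests on a single immunoblot, so individual values are noisy.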 Unmarked entries are inactive. The numbers tell different reagents against one gene apart. The record does not give: the time to read-out.
gene knocked down,siRNA no.,"pCHK1/CHK1, % of control"
UBE2V2,1,43.8 (active)
UBE2S,1,97.2
BRCA1,1,68.7
RBBP8,1,79.6
UBE2NL,1,50.1 (active)
BIRC6,1,104
UBE2N,1,10.3 (active)
UBE2N,2,63.9
CDC34,1,47.8 (active)
UBE2H,1,58.2 (active)
TSG101,1,99.8
UBE2O,1,58.6 (active)
UBE2L3,1,55.3 (active)
UBE2J1,1,60 (active)
UBE2T,1,54.6 (active)
UBE2B,1,204 (active)
UEVLD,1,99
UBE2W,1,58.7 (active)

A stretch taken from the entries so far, as a working copy:
gene knocked down,siRNA no.,"pCHK1/CHK1, % of control"
BIRC6,1,104
UBE2N,1,10.3 (active)

The listing continues.
gene knocked down,siRNA no.,"pCHK1/CHK1, % of control"
UBE2C,1,85.5
UBE2G2,1,65.4
UBE2A,1,201 (active)
UBE2Z,1,55.7 (active)
UBE2Q2,1,55.8 (active)
UBE2D3,1,2.53 (active)
UBE2D4,1,62.1
UBE2K,1,153 (active)
UBE2E1,1,121
UBE2V1,1,82.1
AKTIP,1,59.2 (active)
UBE2F,1,80
UBE2L6,1,35.3 (active)
UBE2E3,1,79.5
UBE2M,1,116
UBE2R2,1,63.1
UBE2D2,1,33.2 (active)
UBE2E2,1,117
UBE2U,1,117
UBE2D1,1,56.5 (active)
UBE2G1,1,90.3
UBE2J2,1,80.2
UBE2Q1,1,107
